In the supplement of paper PMC8728848:
The other results are listed elsewhere or left out.

Assays:
Test in all cases: glycan array binding signal (z-score within array); higher = stronger binding
Details in all cases: glycan notation: IUPAC condensed, linker removed
[1] = biological target: Gal(b1-3)GlcNAc(b1-2)Man(a1-3)[Gal(b1-3)GlcNAc(b1-2)Man(a1-6)]Man(b1-4)GlcNAc(b1-4)[Fuc(a1-6)]GlcNAc
Summary of the method: (§1)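 The binding signal is a Z-score computed within each array. Data were drawn from 3228 arrays in the Consortium for Functional Glycomics database, restricted to those with a known protein sequence. Scores were averaged over arrays of the same protein sequence at different concentrations or buffers, and over linkers, and negative values can be taken as non-binding.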

[2] = biological target: Gal(b1-3)GlcNAc(b1-2)Man(a1-3)[GlcNAc(b1-4)][Gal(b1-3)GlcNAc(b1-2)Man(a1-6)]Man(b1-4)GlcNAc(b1-4)GlcNAc
Summary of the method: as §1

[3] = biological target: Gal(b1-3)GlcNAc(b1-2)[Gal(b1-3)GlcNAc(b1-6)]Man(a1-6)[Gal(b1-3)GlcNAc(b1-2)Man(a1-3)]Man(b1-4)GlcNAc(b1-4)GlcNAc
Summary of the method: as §1

[4] = biological target: Gal(b1-3)GlcNAc(b1-3)Gal(b1-3)GlcNAc
Summary of the method: as §1

[5] = biological target: Gal(b1-3)GlcNAc(b1-3)Gal(b1-4)Glc
Summary of the method: as §1

[6] = biological target: Gal(b1-3)GlcNAc(b1-3)Gal(b1-4)GlcNAc
Summary of the method: as §1

[7] = biological target: Gal(b1-3)GlcNAc(b1-3)Gal(b1-4)GlcNAc(b1-2)Man(a1-3)[Gal(b1-3)GlcNAc(b1-3)Gal(b1-4)GlcNAc(b1-2)Man(a1-6)]Man(b1-4)GlcNAc(b1-4)GlcNAc
Summary of the method: as §1

[8] = biological target: Gal(b1-3)GlcNAc(b1-3)Gal(b1-4)GlcNAc(b1-2)[Gal(b1-3)GlcNAc(b1-3)Gal(b1-4)GlcNAc(b1-6)]Man(a1-6)[Gal(b1-3)GlcNAc(b1-3)Gal(b1-4)GlcNAc(b1-2)Man(a1-3)]Man(b1-4)GlcNAc(b1-4)[Fuc(a1-6)]GlcNAc
Summary of the method: as §1

[9] = biological target: Gal(b1-3)GlcNAc(b1-3)Gal(b1-4)GlcNAc(b1-3)Gal(b1-4)GlcNAc(b1-2)[Gal(b1-3)GlcNAc(b1-3)Gal(b1-4)GlcNAc(b1-3)Gal(b1-4)GlcNAc(b1-6)]Man(a1-6)[Gal(b1-3)GlcNAc(b1-3)Gal(b1-4)GlcNAc(b1-3)Gal(b1-4)GlcNAc(b1-2)Man(a1-3)]Man(b1-4)GlcNAc(b1-4)[Fuc(a1-6)]GlcNAc
Summary of the method: as §1

[10] = biological target: Gal(b1-3)GlcNAc(b1-3)Gal(b1-4)GlcNAc(b1-6)[Gal(b1-3)GlcNAc(b1-3)]Gal(b1-4)Glc
Summary of the method: as §1

[11] = biological target: Gal(b1-3)GlcNAc(b1-3)Gal(b1-4)[Fuc(a1-3)]GlcNAc
Summary of the method: as §1

[12] = biological target: Gal(b1-3)GlcNAc(b1-3)Gal(b1-4)[Fuc(a1-3)]GlcNAc(b1-6)[Gal(b1-3)GlcNAc(b1-3)]Gal(b1-4)Glc
Summary of the method: as §1

[13] = biological target: Gal(b1-3)GlcNAc(b1-3)GalNAc
Summary of the method: as §1

[14] = biological target: Gal(b1-3)GlcNAc(b1-6)Gal(b1-4)GlcNAc
Summary of the method: as §1

[15] = biological target: Gal(b1-3)GlcNAc(b1-6)GalNAc
Summary of the method: as §1

[16] = biological target: Gal(b1-3)GlcNAc(b1-6)[Gal(b1-3)]GalNAc
Summary of the method: as §1

Gal(b1-3)GlcNAc6S = biological target: Gal(b1-3)GlcNAc6S
Summary of the method: as §1

[17] = biological target: Gal(b1-3)[Fuc(a1-4)]GlcNAc
Summary of the method: as §1

[18] = biological target: Gal(b1-3)[Fuc(a1-4)]GlcNAc(b1-2)Man
Summary of the method: as §1

[19] = biological target: Gal(b1-3)[Fuc(a1-4)]GlcNAc(b1-2)Man(a1-3)[Gal(b1-3)[Fuc(a1-4)]GlcNAc(b1-2)Man(a1-6)]Man(b1-4)GlcNAc(b1-4)[Fuc(a1-6)]GlcNAc
Summary of the method: as §1

[20] = biological target: Gal(b1-3)[Fuc(a1-4)]GlcNAc(b1-3)Gal(b1-3)[Fuc(a1-4)]GlcNAc
Summary of the method: as §1

[21] = biological target: Gal(b1-3)[Fuc(a1-4)]GlcNAc(b1-3)Gal(b1-4)[Fuc(a1-3)]GlcNAc
Summary of the method: as §1

[22] = biological target: Gal(b1-3)[Fuc(a1-4)]GlcNAc(b1-6)GalNAc
Summary of the method: as §1

[23] = biological target: Gal(b1-3)[GlcNAc(b1-6)]GalNAc
Summary of the method: as §1

[24] = biological target: Gal(b1-3)[Neu5Ac(a2-6)]GalNAc
Summary of the method: as §1

[25] = biological target: Gal(b1-3)[Neu5Ac(a2-6)]GlcNAc(b1-4)Gal(b1-4)Glc
Summary of the method: as §1

[26] = biological target: Gal(b1-3)[Neu5Ac(b2-6)]GalNAc
Summary of the method: as §1

Gal(b1-4)Gal = biological target: Gal(b1-4)Gal
Summary of the method: as §1

[27] = biological target: Gal(b1-4)GalNAc(a1-3)[Fuc(a1-2)]Gal(b1-4)GlcNAc
Summary of the method: as §1

[28] = biological target: Gal(b1-4)GalNAc(b1-3)[Fuc(a1-2)]Gal(b1-4)GlcNAc
Summary of the method: as §1

B1: TAL6-6LysM (Trichoderma atroviride) (protein)
chain: AASKLGVPQPAQRDQVNCQLYAVQPNDNCIDISSKNNITYAQLLSWNPSLSSTCSNLASLNSSSICVSNPKGTFSISSNTVGATDIATTTAPVPSPTLDQTTSRCAKYYQVSDGDDCSHLTAQFAITLKDFIFLNSEVWQNCTNLELGYYYCVEPVGYISTYPGYLPTATTKPFNQTSATSLPYDGDPWARFSSNSSVIPIANGTRVDCYSYVYVKNLTENLFADCWNMASMYEITREELVLWNPSLGNDGSSGSNLSGAEASQVASSIAIPTTAPSSITTNLYTYPCTVAANISYCVALVSSTGALPTNTAPPGPHASGEISNCTAWFAPEAYDTCKSILDIFEMSFANFYKMNPSVGPDCSGLAVGTNYCVSTYPNGEDPNDDWDGDDSIPSISPTGIITPTPTQSGMVSNCNKFYDVHSNDGCSAIASSQHVDLSSLYKWNPAIKTDCSGLQASVYVCIGILTTSMSTTSKLPTTTSKPSTTSKPPTGITTPTPTQSGMVKNCNKFYDVHSGDGCSAIASSQKVNLSSFYLWNPAVKTDCSGLQASVFVCIGTLTTSMSTTTSKLPTTTSKPSTTSKPPTGIITPTPTQNGMVKNCNKFYDVHSGDGCSAIASSQKVNLSSFYLWNPAVKTDCSGLQASVFVCVGTATTTTAAGITTPTPTQSGMVSGCNKFYDVHAGDGCSAIASSQKIALSSLYKWNPAVKTDCSGLQASVYICIGVGNAAAARVTGAAASFLEQKLISEEDLNSAVDHHHHHH
For B1, the “glycan array binding signal (z-score)” value [1] was -0.231, the “glycan array binding signal (z-score)” value [2] was -0.061 and the “glycan array binding signal (z-score)” value [3] was -0.157. The “glycan array binding signal (z-score)” value [4] was 1.47, the “glycan array binding signal (z-score)” value [5] was -0.602 and the “glycan array binding signal (z-score)” value [6] was -0.571. For the same binder, the “glycan array binding signal (z-score)” value [7] was 0.356, the “glycan array binding signal (z-score)” value [8] was -0.913 and the “glycan array binding signal (z-score)” value [9] was 0.008. For the same binder, the “glycan array binding signal (z-score)” value [10] was -1.31, the “glycan array binding signal (z-score)” value [11] was -0.428 and the “glycan array binding signal (z-score)” value [12] was -1.39. The “glycan array binding signal (z-score)” value [13] was -0.729, the “glycan array binding signal (z-score)” value [14] was 0.848 and the “glycan array binding signal (z-score)” value [15] was -0.12. The “glycan array binding signal (z-score)” value [16] was -1.01, the “glycan array binding signal (z-score)” value (Gal(b1-3)GlcNAc6S) was -0.289 and the “glycan array binding signal (z-score)” value [17] was 0.802. For the same binder, the “glycan array binding signal (z-score)” value [18] was 0.149, the “glycan array binding signal (z-score)” value [19] was -0.76 and the “glycan array binding signal (z-score)” value [20] was 0.447. For the same binder, the “glycan array binding signal (z-score)” value [21] was -1.2, the “glycan array binding signal (z-score)” value [22] was 1.02 and the “glycan array binding signal (z-score)” value [23] was -0.67. For the same binder, the “glycan array binding signal (z-score)” value [24] was -0.095, the “glycan array binding signal (z-score)” value [25] was -0.503 and the “glycan array binding signal (z-score)” value [26] was 0.533. For the same binder, the “glycan array binding signal (z-score)” value (Gal(b1-4)Gal) was -0.397, the “glycan array binding signal (z-score)” value [27] was 0.916 and the “glycan array binding signal (z-score)” value [28] was -1.31.
